Consider one molecule from patent US20160177259A1, “[…]” (Evonik Degussa GmbH, priority 2014, published 2016).

The subject of the series is Clostridium ljungdahlii. In words: Formation of acetic acid and ethanol from synthesis gas in CGF1 mineral medium with refeeding of cysteine (Example 3). The series is classed as cell-based. On the procedure:
For the biotransformation of hydrogen and carbon dioxide to acetic acid and ethanol the homoacetogenic bacterium Clostridium ljungdahlii was cultivated on synthesis gas with refeeding of cysteine. All cultivation steps were carried out under anaerobic conditions in pressure-resistant glass bottles that can be closed airtight with a butyl rubber stopper.
The chemolithoautotrophic cultivation was carried out in a 1 L pressure-resistant glass bottle at 37° C., 100 rpm and a ventilation rate of 3 L/h with a premixed gas with 67% H2, 33% CO2 in an open water bath shaker for 69 h till OD600nm>0.4. The gas was discharged into the medium through a sparger with a pore size of 10 μm, which was mounted in the center of the reactors. Then the cell suspension was centrifuged and the cell pellet was resuspended in fresh CGF1 mineral medium as disclosed below.
For the production phase, as many washed cells from the preculture of C. ljungdahlii as necessary for an OD600nm of 0.2 were added to 100 ml mineral medium (CGF1 medium, pH 6.5, 1.4 g/L KOH, 2 g/L (NH4)2SO4, 1 g/L KH2PO4, 1 g/L K2HPO4, 10 mg/L FeSO4 X 7 H2O, 3.8 mg/L MnSO4 X 1 H2O, 246 mg/L MgSO4×7 H2O, aerated for 30 min with a premixed gas with 67% H2 and 33% CO2). […] The cultivation was carried out in 500 mL pressure-resistant glass bottles at 37° C., 150 rpm in an open water bath shaker for 163 h which were aerated to an overpressure of 0.8 bar with a premixed gas with 67% H2, 33% CO2 one time a day. The pH was held >5.0 by intermittent additions of a 140 g/L KOH solution. During the cultivation several 5 mL samples were taken to determinate OD600nm, pH and product formation. […] The determination of the product concentrations including the L-Cysteine concentration was performed by semiquantitative ^1H-NMR spectroscopy. As an internal quantification standard sodium trimethylsilylpropionate (T(M)SP) was used.

`Cl.N[C@@H](CS)C(=O)O` [L-Cysteine-HCl, L-cysteine hydrochloride]: the L-Cysteine by setting is: (culture A, 400 mg/L L-cysteine-hydrochloride at start, no refeed, 0 h) 270.0 mg/L; (culture A, 400 mg/L L-cysteine-hydrochloride at start, no refeed, 18.75 h) 70.0 mg/L; (culture B, 200 mg/L L-cysteine-hydrochloride at start, no refeed, 0 h) 132.5 mg/L; (culture C, 200 mg/L L-cysteine-hydrochloride at start, re-fed 200 mg/L after 18, 41, 65, 89 h, 0 h) 120.0 mg/L; (culture C, 200 mg/L L-cysteine-hydrochloride at start, re-fed 200 mg/L after 18, 41, 65, 89 h, 46.75 h) 123.0 mg/L; (culture C, 200 mg/L L-cysteine-hydrochloride at start, re-fed 200 mg/L after 18, 41, 65, 89 h, 69.5 h) 108.0 mg/L. For the same molecule, the L-Cysteine (culture C, 200 mg/L L-cysteine-hydrochloride at start, re-fed 200 mg/L after 18, 41, 65, 89 h, 95.5 h) worked out at 89.0 mg/L.
